Measurements reported in PubChem BioAssay AID1259254 (NCATS, 2017).
In all, the deposit lists about 59,000 reagents; shown is an unselected part. About 1,550 of all reagents (2.6%) count as active. 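G2 share is only a proxy for re-replication; each gene was hit by three separate siRNAs, and active genes were retested.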 Entries without a mark were called inactive. Reagents against one gene are numbered here. Further read-outs or replicates are left out here. Reagent sequences are not shown. Not stated in the record: the amount of reagent.

Purpose: 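Genome-wide screen for genes that prevent DNA re-replication in cancer cells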 (primary screen)
Cell system: human HCT116 colorectal cancer cells
Reagent: single siRNA against human genes
Timing: 3 days
Measurement: 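Nuclei stained with Hoechst and imaged; cell-cycle phase assigned by DNA content; G2 share scaled per plate, non-targeting siRNA 0%, GMNN siRNA 100%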
Scale: G2 robust z-score and G2 cells, % of GMNN control: higher = more G2 cells, more excess DNA replication
Active means: 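Active siRNAs have a G2 robust z of 5 or more median absolute deviations over the median, which in these data means about 38% or higher of GMNN control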

{"Gene": "ZSCAN20", "reagent": 1, "G2 robust z-score": -0.638, "G2 cells, % of GMNN control": -1.52}
{"Gene": "ZSCAN20", "reagent": 2, "G2 robust z-score": -0.636, "G2 cells, % of GMNN control": -1.51}
{"Gene": "ZSCAN20", "reagent": 3, "G2 robust z-score": -0.136, "G2 cells, % of GMNN control": 2.01}
{"Gene": "KCNJ6", "reagent": 1, "G2 robust z-score": -0.496, "G2 cells, % of GMNN control": -0.522}
{"Gene": "KCNJ6", "reagent": 2, "G2 robust z-score": 0.658, "G2 cells, % of GMNN control": 7.6}
{"Gene": "KCNJ6", "reagent": 3, "G2 robust z-score": 2.1, "G2 cells, % of GMNN control": 17.8}
{"Gene": "TNR", "reagent": 1, "G2 robust z-score": 2.19, "G2 cells, % of GMNN control": 18.4}
{"Gene": "TNR", "reagent": 2, "G2 robust z-score": -0.33, "G2 cells, % of GMNN control": 0.644}
{"Gene": "TNR", "reagent": 3, "G2 robust z-score": -0.697, "G2 cells, % of GMNN control": -1.94}
{"Gene": "WDR91", "reagent": 1, "G2 robust z-score": 2.23, "G2 cells, % of GMNN control": 18.7}
{"Gene": "WDR91", "reagent": 2, "G2 robust z-score": -0.313, "G2 cells, % of GMNN control": 0.763}
{"Gene": "WDR91", "reagent": 3, "G2 robust z-score": -0.803, "G2 cells, % of GMNN control": -2.68}
{"Gene": "PRRG2", "reagent": 1, "G2 robust z-score": 0.318, "G2 cells, % of GMNN control": 5.2}
{"Gene": "PRRG2", "reagent": 2, "G2 robust z-score": 1.16, "G2 cells, % of GMNN control": 11.1}
{"Gene": "PRRG2", "reagent": 3, "G2 robust z-score": -0.497, "G2 cells, % of GMNN control": -0.528}
{"Gene": "TRIM2", "reagent": 1, "G2 robust z-score": -0.94, "G2 cells, % of GMNN control": -3.65}
{"Gene": "TRIM2", "reagent": 2, "G2 robust z-score": -0.0274, "G2 cells, % of GMNN control": 2.77}
{"Gene": "TRIM2", "reagent": 3, "G2 robust z-score": -0.17, "G2 cells, % of GMNN control": 1.77}
{"Gene": "LAMTOR5", "reagent": 1, "G2 robust z-score": -0.776, "G2 cells, % of GMNN control": -2.5}
{"Gene": "LAMTOR5", "reagent": 2, "G2 robust z-score": 1.07, "G2 cells, % of GMNN control": 10.5}
{"Gene": "LAMTOR5", "reagent": 3, "G2 robust z-score": 2.49, "G2 cells, % of GMNN control": 20.5}
{"Gene": "GUSBP14", "reagent": 1, "G2 robust z-score": -0.0998, "G2 cells, % of GMNN control": 2.27}
{"Gene": "GUSBP14", "reagent": 2, "G2 robust z-score": -0.868, "G2 cells, % of GMNN control": -3.14}
{"Gene": "GUSBP14", "reagent": 3, "G2 robust z-score": -0.818, "G2 cells, % of GMNN control": -2.79}
{"Gene": "MAP3K14", "reagent": 1, "G2 robust z-score": -0.0307, "G2 cells, % of GMNN control": 2.75}
{"Gene": "MAP3K14", "reagent": 2, "G2 robust z-score": 1.3, "G2 cells, % of GMNN control": 12.1}
{"Gene": "MAP3K14", "reagent": 3, "G2 robust z-score": -0.0941, "G2 cells, % of GMNN control": 2.31}
{"Gene": "ZNF3", "reagent": 1, "G2 robust z-score": 1.59, "G2 cells, % of GMNN control": 14.1}
{"Gene": "ZNF3", "reagent": 2, "G2 robust z-score": -0.0555, "G2 cells, % of GMNN control": 2.58}
{"Gene": "ZNF3", "reagent": 3, "G2 robust z-score": -0.355, "G2 cells, % of GMNN control": 0.473}

Not a retest: an excerpt of the list.
{"Gene": "TNR", "reagent": 2, "G2 robust z-score": -0.33, "G2 cells, % of GMNN control": 0.644}
{"Gene": "TNR", "reagent": 3, "G2 robust z-score": -0.697, "G2 cells, % of GMNN control": -1.94}
